The list shows only some results of the screen, not a fair sample: it is rich in T/C values a quarter to a half above the control, in often repeated tests (any T/C) and in doses without a T/C. Other doses and runs of a compound stand elsewhere. T/C is the treated group as % of the vehicle group. Schedule codes are those of the source, taken here to give the interval after Q, in days (D) or hours (H), and the number of doses after X. Some doses have a count of surviving animals in place of a T/C: the source files T/C as zero there, which appears to mark a toxic dose or a test without result, not a measured value. Counts of survivors are from the toxicity check (mostly the fifth day) where no day follows; animals may have died later. Some entries hold several experiments; the values are given in rising order. Some schedules carry Z or #; the key to these is not given.
System: BDF1 mice, Adenocarcinoma 755 s.c., tumor weight T/C
Test: NCI In Vivo Anticancer Drug Screen. Data for tumor model Adenocarcinoma 755 (subcutaneous) in B6D2F1 (BDF1) mice
Settings: T/C endpoint: mean tumor weight, higher T/C = larger tumour; for T/C: evaluated on day 12
In short: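 Compound activity was tested in mice carrying transplanted tumors. Survival or tumor size was measured, and each value is the treated-group measurement divided by that of the vehicle-treated control group (T/C).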

With `[I][Hg][CH2]C1COC([CH2][Hg][I])CO1` (configuration not stated) the survivor count (dose: 10.0 mg/kg/injection, schedule: Q#A X022 (ip), vehicle: carboxymethylcellulose (CMC)) was 2 of 10, the survivor count (dose: 15.0 mg/kg/injection, schedule: Q01DX011 (ip), vehicle: methylcellulose (MC)) was 5 of 10 and the T/C (dose: 35.0 mg/kg/injection, schedule: Q01DX001 (ip), vehicle: carboxymethylcellulose (CMC)) was 126 % of control. The survivor count (dose: 55.0 mg/kg/injection, schedule: Q07DX002 (ip), vehicle: carboxymethylcellulose (CMC)) was 6 of 10, the survivor count (dose: 60.0 mg/kg/injection, schedule: Q01DX011 (ip), vehicle: methylcellulose (MC)) was 6 of 10 and the survivor count (dose: 75.0 mg/kg/injection, schedule: Q03DX004 (ip), vehicle: carboxymethylcellulose (CMC)) was 0 of 10. The survivor count (dose: 85.0 mg/kg/injection, schedule: Q01DX001 (ip), vehicle: carboxymethylcellulose (CMC)) was 6 of 10, the survivor count (dose: 85.0 mg/kg/injection, schedule: Q07DX002 (ip), vehicle: carboxymethylcellulose (CMC)) was 1 of 10 and the survivor count (dose: 100.0 mg/kg/injection, schedule: Q01DX011 (oral), vehicle: methylcellulose (MC)) was 4 of 10. The survivor count (dose: 125.0 mg/kg/injection, schedule: Q01DX001 (ip), vehicle: carboxymethylcellulose (CMC)) was 1 of 10 and 5 of 10, the survivor count (dose: 125.0 mg/kg/injection, schedule: Q07DX002 (ip), vehicle: carboxymethylcellulose (CMC)) was 0 of 10 and the survivor count (dose: 160.0 mg/kg/injection, schedule: Q01DX011 (im), vehicle: carboxymethylcellulose (CMC)) was 6 of 12. For the same compound, the survivor count (dose: 200.0 mg/kg/injection, schedule: Q01DX011 (oral), vehicle: methylcellulose (MC)) was 1 of 10, the survivor count (dose: 240.0 mg/kg/injection, schedule: Q01DX011 (im), vehicle: carboxymethylcellulose (CMC)) was 1 of 10 and 3 of 12 and the survivor count (dose: 360.0 mg/kg/injection, schedule: Q01DX011 (im), vehicle: carboxymethylcellulose (CMC)) was 3 of 12. The survivor count (dose: 360.0 mg/kg/injection, schedule: Q01DX011 (sc), vehicle: carboxymethylcellulose (CMC)) was 6 of 12.
In the case of `O=C(CCCl)N1CCN(C(=O)CCCl)CC1`, the survivor count (dose: 263.0 mg/kg/injection, schedule: Q01DX011 (ip), vehicle: methylcellulose (MC)) is reported as 3 of 10 and the survivor count (dose: 350.0 mg/kg/injection, schedule: Q01DX011 (ip), vehicle: methylcellulose (MC)) is reported as 1 of 10 and 4 of 10.
In the case of `CCCCCCCCSc1ncnc2c1ncn2CCCC`, the T/C (dose: 187.0 mg/kg/injection, schedule: Q01DX011 (ip), vehicle: saline) is reported as 135 % of control.
In the case of `S=P(N1CC1)(N1CC1)N1CC1`, the T/C (dose: 0.48 mg/kg/injection, schedule: Q01DX011 (ip), vehicle: carboxymethylcellulose (CMC)) is reported as 129 % of control, the T/C (dose: 0.58 mg/kg/injection, schedule: Q01DX011 (ip), vehicle: carboxymethylcellulose (CMC)) is reported as 146 % of control and the T/C (dose: 2.08 mg/kg/injection, schedule: Q01DX011 (ip), vehicle: carboxymethylcellulose (CMC)) is reported as 125 % of control. For the same compound, the T/C (dose: 2.6 mg/kg/injection, schedule: Q01DX011 (ip), vehicle: carboxymethylcellulose (CMC)) was 128 % of control and the T/C (dose: 3.46 mg/kg/injection, schedule: Q01DX011 (ip), vehicle: carboxymethylcellulose (CMC)) was 125 % of control.
In the case of `ClCCN(CCCl)c1ccc(/C=C\c2ccnc3ccccc23)cc1`, the survivor count (dose: 230.0 mg/kg/injection, schedule: Q01DX011 (ip), vehicle: carboxymethylcellulose (CMC)) is reported as 0 of 10.
In the case of `CC(=O)[C@H]1CC[C@H]2[C@@H]3CCC4=CC(=O)[C@H](C)C[C@]4(C)[C@@]3(F)C(=O)C[C@]12C`, the T/C (dose: 3.0 mg/kg/injection, schedule: Q01DX011 (sc), vehicle: steroid suspending solution) is reported as 132 % of control, the survivor count (dose: 150.0 mg/kg/injection, schedule: Q01DX011 (sc), vehicle: steroid suspending solution) is reported as 7 of 12 and the survivor count (dose: 300.0 mg/kg/injection, schedule: Q01DX011 (sc), vehicle: steroid suspending solution) is reported as 2 of 12. The survivor count (dose: 400.0 mg/kg/injection, schedule: Q01DX011 (sc), vehicle: steroid suspending solution) was 5 of 10.
With `CS(=O)(=O)OCCC(=O)NCCCNC(=O)CCOS(C)(=O)=O` the survivor count (dose: 28.0 mg/kg/injection, schedule: Q01DX011 (ip), vehicle: methylcellulose (MC)) was 2 of 10 and the survivor count (dose: 113.0 mg/kg/injection, schedule: Q01DX011 (ip), vehicle: methylcellulose (MC)) was 6 of 10.
In the case of `CCCCn1cnc2c(SCc3ccccn3)nc(N)nc21`, the survivor count (dose: 31.25 mg/kg/injection, schedule: Q01DX011 (ip), vehicle: methylcellulose (MC)) is reported as 3 of 10.
